# Laboratory results as given in patent US6322999A, “DNA encoding kainate-binding, human CNS receptors of the EAA5 family” (NPS Allelix Corp., priority 1995, dated 2001).
# Amino acid sequences for entries named in this document (tags omitted). Residues count along the entry.
# UniProt Q13003, 32-919 S310A/R352Q/E627V/S713R: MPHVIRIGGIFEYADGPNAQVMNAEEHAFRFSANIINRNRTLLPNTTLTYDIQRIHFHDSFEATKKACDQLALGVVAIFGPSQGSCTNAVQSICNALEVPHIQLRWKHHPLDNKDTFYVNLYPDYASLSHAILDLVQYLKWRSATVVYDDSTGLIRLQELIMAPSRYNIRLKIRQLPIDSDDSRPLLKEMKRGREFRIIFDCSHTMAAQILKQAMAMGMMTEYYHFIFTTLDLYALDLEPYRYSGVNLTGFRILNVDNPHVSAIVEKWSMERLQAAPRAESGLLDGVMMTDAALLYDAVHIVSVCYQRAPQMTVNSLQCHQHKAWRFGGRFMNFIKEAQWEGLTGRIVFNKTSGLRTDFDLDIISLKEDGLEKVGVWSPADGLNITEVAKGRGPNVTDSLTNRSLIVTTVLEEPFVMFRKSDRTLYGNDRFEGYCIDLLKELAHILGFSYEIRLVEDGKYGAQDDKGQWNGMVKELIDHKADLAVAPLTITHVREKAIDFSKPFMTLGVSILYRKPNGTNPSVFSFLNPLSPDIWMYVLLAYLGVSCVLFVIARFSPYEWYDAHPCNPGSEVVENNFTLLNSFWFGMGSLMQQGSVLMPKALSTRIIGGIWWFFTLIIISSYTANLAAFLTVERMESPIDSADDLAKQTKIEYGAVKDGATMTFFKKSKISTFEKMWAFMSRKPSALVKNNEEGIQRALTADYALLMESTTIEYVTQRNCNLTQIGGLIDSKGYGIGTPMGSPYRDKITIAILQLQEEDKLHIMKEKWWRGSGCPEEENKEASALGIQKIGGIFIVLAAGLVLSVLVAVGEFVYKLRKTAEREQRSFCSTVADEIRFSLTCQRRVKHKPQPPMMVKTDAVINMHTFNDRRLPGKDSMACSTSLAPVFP
# For at least one compound, name, drawing or mass did not settle the structure.
# Molecular target: T1, human EAA5a receptor (Homo sapiens, UniProt Q13003)
# T1 construct: expressed in transfected cells; host or cells: COS-1 (ATCC CRL 1650), transient, pcDNAI/humEAA5a
# Test: NMDA ligand binding on membranes of EAA5a-producing COS cells
# Conditions: COS-1 membranes expressing EAA5a
compound,measurement,value
"CN[C@H](CC(=O)O)C(=O)O [NMDA, N-methyl-D-aspartate]",binding of NMDA,little or no demonstrable binding
